Results deposited as PubChem BioAssay AID1224826 (NIAID, 2016).
Assay: 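Knock-downs that raise or lower Tnf reporter signal after endotoxin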 (primary screen). Cells: RAW264.7 G9 macrophages from mouse bearing reporters for p65 (GFP) and the Tnf promoter (mCherry). Reagent: siRNA pool against mouse genes, 100 nM. Duration: 16 h of LPS stimulation, after 2 days of siRNA transfection. Treatment: bacterial lipopolysaccharide (Salmonella minnesota R595), 10 ng/ml. Measurement: 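Imaged Tnf reporter mCherry in nuclei, minus background, normalised per plate to the median and expressed as robust z-scores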. Scale: Tnf reporter robust z-score: higher = stronger Tnf promoter reporter signal after LPS. Rule for the call: 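Called active when robust z-score is at most -1.3, matching the median of the Tlr4 knock-down control, or over 3; control wells and wells with under 50 cells never active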. Meaning of the calls: active = Tnf reporter clearly lowered or raised; inactive = no clear change in Tnf reporter.
Here is a random part of about 17,000 reagents tested. Over the whole deposit, about 1,110 (6.6%) were called active. 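Active means lowered or raised reporter signal; replicate intensities are raw and not normalised per plate.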 Further read-outs or replicates are left out here.

gene	PubChem SID	Tnf reporter robust z-score	fewer than 50 cells in well	Call
Polr1e	SID315472101	2.4	enough cells in well	inactive
Tns4	SID315478085	-1.53	enough cells in well	active
Or8k3b	SID315480485	0.06	enough cells in well	inactive
Ptcra	SID315468765	-0.81	enough cells in well	inactive
Clec2m	SID315481808	-0.49	enough cells in well	inactive
Meak7	SID315474946	0.28	enough cells in well	inactive
Spef1	SID315474172		fewer than 50 cells per well; well left out of calls	inactive
Psmd11	SID315473716		fewer than 50 cells per well; well left out of calls	inactive
Zfp655	SID315474590	-0.41	enough cells in well	inactive
Haus2	SID315472348		fewer than 50 cells per well; well left out of calls	inactive
A730085E03Rik	SID315482005	-0.58	enough cells in well	inactive
Rnf38	SID315474735		fewer than 50 cells per well; well left out of calls	inactive
Ctss	SID315466199	0.2	enough cells in well	inactive
Slc25a23	SID315472748	-0.27	enough cells in well	inactive
Tmem38a	SID315474883	-0.77	enough cells in well	inactive
Sec24a	SID315475461	-0.03	enough cells in well	inactive
Wdr83	SID315473247		fewer than 50 cells per well; well left out of calls	inactive
Slc16a4	SID315478731	1.92	enough cells in well	inactive
Hycc1	SID315475901	-0.25	enough cells in well	inactive
Eeig1	SID315476155		fewer than 50 cells per well; well left out of calls	inactive
Senp6	SID315477924	0.36	enough cells in well	inactive
Exoc2	SID315472469	-0.6	enough cells in well	inactive
Slc2a8	SID315471343	0.32	enough cells in well	inactive
Tuba8	SID315471109	0.16	enough cells in well	inactive
Fbxo3	SID315471796	0.13	enough cells in well	inactive
Ptbp2	SID315471392		fewer than 50 cells per well; well left out of calls	inactive
Rps24	SID315469042		fewer than 50 cells per well; well left out of calls	inactive
Tmem183a	SID315471792	0.23	enough cells in well	inactive
Or5g29	SID315480110	0.66	enough cells in well	inactive
Kif1b	SID315467616	-1.45	enough cells in well	active
Mvb12b	SID315474572	-0.28	enough cells in well	inactive
Msr1	SID315469128	0.28	enough cells in well	inactive
Gabrr1	SID315466808	0.4	enough cells in well	inactive
Pdia5	SID315474588	-0.41	enough cells in well	inactive
Rarb	SID315478213	-0.09	enough cells in well	inactive
Pole2	SID315468622	-0.55	enough cells in well	inactive
Flywch1	SID315478348	-0.06	enough cells in well	inactive
Cyp17a1	SID315466214	0.36	enough cells in well	inactive
Ndel1	SID315475820	-0.58	enough cells in well	inactive
Bmp3	SID315476868	-2	enough cells in well	active
Ckap2l	SID315474062		fewer than 50 cells per well; well left out of calls	inactive
Zswim1	SID315474399	-1.09	enough cells in well	inactive
Neil1	SID315474625	-0.38	enough cells in well	inactive
Tex101	SID315471669		fewer than 50 cells per well; well left out of calls	inactive
Zfp809	SID315479222	-0.7	enough cells in well	inactive
Slc16a6	SID315476453	2.53	enough cells in well	inactive
Or5w16	SID315480292	-1.05	enough cells in well	inactive
Myh2	SID315468058	-0.32	enough cells in well	inactive
Gpr27	SID315466996	-0.54	enough cells in well	inactive
Prph2	SID315468720	2.02	enough cells in well	inactive
Znf41-ps	SID315473954	2.22	enough cells in well	inactive
Thop1	SID315470796	1.79	enough cells in well	inactive
Zfp87	SID315477230	-0.25	enough cells in well	inactive
Sprr2j-ps	SID315469449	1.47	enough cells in well	inactive
Rnf20	SID315476824	-0.11	enough cells in well	inactive
Pyroxd1	SID315478994	-0.85	enough cells in well	inactive
Haus6	SID315478776	0.58	enough cells in well	inactive
Magea13	SID315475108		fewer than 50 cells per well; well left out of calls	inactive
